# Results as given in patent US20150239950A1 (SALK INSTITUTE FOR BIOLOGICAL STUDIES, published 2015).
# The chains behind the UniProt entries cited, without tags or fusion partners. Residues count along the entry.
# UniProt P27038, residues 20-135: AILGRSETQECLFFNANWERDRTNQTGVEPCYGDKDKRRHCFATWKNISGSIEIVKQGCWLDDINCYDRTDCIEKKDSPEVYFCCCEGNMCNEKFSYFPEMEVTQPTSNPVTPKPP
# These are yes or no findings as the source states them, for the method shown. Some binding calls cover weakened binding; strength is not graded here.
# B1: AB2-011 (1b2b3b4b5a6a activin/BMP-2 chimera) (ligand)
# chain: MQAKHQQRKRLKSSCKRHPLYVDFSDVGWNDWIVAPPGYHAFYCHGECPFPLADHLNSTNHAIVQTLVNSVNSKIPKACCVPTKLRPSMLYYDDGQNIIKKDIQNMIVEECGCS
# B2: AB2-012 (1b2b3b4b5b6a activin/BMP-2 chimera) (ligand)
# chain: MQAKHKQRKRLKSSCKRHPLYVDFSDVGWNDWIVAPPGYHAFYCHGECPFPLADHLNSTNHAIVQTLVNSVNSKIPKACCVPTELSAISMLYYDDGRNIIKKDIQNMIVEECGCS
# Target: ActRII-ECD (extracellular domain of mouse ActRII, residues 1-102) (mouse) (UniProt P27038)
# Assay: SPR (BIAcore), receptor ECD immobilized
row,Binder,binding
1,B1,binds
2,B2,binds
